Experimental data reported in patent US9212349B2, “Method to produce virus in cultured cells” (priority 2011, dated 2015).
At least one structure is not confirmed: it was looked up by name or label, or the drawing left a doubt.

Test system: VZV
Assay: Yield of cell-free infectious VZV from infected MRC5 cells, plaque assay on ARPE-19 cells
Assay type: cell-based, varicella zoster virus
Conditions: Example 6; MOI 1:100, 72 hours after infection; HSA, DHA 25 μM, AA 100 μM, with 10 μM α-T; cholesterol 13 μM

SMILES: CC/C=C\C/C=C\C/C=C\C/C=C\C/C=C\C/C=C\CCC(=O)O [DHA, docosahexaenoic acid]
- VZV yield relative to no treatment: elevated the yield of VZV
